Experimental data reported in the supplement of paper PMC10849652.
The list shows a part of the results.

Amino acid sequences for entries named in this document (tags omitted). A change or cut given only in a name is not applied to a line headed by its entry.
UniProt Q9H9Z2: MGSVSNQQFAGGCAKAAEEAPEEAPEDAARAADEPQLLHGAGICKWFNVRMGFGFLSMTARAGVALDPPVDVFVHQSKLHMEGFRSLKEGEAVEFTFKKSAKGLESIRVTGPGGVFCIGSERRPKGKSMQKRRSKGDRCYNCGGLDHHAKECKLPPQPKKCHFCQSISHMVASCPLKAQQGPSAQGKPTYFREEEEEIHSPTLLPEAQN
UniProt Q6P5S2: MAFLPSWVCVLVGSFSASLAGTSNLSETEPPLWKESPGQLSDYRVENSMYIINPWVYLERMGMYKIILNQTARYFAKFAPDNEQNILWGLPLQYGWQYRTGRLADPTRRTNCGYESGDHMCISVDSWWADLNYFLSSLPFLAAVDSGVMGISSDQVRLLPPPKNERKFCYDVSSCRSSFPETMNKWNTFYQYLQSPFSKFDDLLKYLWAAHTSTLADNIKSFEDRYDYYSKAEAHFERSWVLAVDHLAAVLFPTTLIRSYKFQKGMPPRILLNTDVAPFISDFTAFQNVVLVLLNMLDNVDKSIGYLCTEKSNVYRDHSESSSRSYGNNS
UniProt P09382, whole entry, looked up: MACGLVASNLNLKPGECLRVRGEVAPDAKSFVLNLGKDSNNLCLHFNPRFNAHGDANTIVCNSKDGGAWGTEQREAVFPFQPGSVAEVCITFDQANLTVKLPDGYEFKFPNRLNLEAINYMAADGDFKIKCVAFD
UniProt Q9NS86: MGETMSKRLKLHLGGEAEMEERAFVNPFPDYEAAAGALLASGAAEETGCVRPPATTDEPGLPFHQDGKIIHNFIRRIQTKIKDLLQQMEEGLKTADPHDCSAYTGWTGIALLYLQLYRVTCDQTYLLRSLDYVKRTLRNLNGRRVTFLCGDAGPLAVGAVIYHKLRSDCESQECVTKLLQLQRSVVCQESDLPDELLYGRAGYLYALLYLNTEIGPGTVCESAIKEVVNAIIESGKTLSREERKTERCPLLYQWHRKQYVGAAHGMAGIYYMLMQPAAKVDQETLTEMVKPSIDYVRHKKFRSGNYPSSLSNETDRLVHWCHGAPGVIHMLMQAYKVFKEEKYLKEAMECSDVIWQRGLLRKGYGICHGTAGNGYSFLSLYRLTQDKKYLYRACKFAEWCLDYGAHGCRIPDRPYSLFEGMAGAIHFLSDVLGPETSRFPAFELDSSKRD
UniProt O75581: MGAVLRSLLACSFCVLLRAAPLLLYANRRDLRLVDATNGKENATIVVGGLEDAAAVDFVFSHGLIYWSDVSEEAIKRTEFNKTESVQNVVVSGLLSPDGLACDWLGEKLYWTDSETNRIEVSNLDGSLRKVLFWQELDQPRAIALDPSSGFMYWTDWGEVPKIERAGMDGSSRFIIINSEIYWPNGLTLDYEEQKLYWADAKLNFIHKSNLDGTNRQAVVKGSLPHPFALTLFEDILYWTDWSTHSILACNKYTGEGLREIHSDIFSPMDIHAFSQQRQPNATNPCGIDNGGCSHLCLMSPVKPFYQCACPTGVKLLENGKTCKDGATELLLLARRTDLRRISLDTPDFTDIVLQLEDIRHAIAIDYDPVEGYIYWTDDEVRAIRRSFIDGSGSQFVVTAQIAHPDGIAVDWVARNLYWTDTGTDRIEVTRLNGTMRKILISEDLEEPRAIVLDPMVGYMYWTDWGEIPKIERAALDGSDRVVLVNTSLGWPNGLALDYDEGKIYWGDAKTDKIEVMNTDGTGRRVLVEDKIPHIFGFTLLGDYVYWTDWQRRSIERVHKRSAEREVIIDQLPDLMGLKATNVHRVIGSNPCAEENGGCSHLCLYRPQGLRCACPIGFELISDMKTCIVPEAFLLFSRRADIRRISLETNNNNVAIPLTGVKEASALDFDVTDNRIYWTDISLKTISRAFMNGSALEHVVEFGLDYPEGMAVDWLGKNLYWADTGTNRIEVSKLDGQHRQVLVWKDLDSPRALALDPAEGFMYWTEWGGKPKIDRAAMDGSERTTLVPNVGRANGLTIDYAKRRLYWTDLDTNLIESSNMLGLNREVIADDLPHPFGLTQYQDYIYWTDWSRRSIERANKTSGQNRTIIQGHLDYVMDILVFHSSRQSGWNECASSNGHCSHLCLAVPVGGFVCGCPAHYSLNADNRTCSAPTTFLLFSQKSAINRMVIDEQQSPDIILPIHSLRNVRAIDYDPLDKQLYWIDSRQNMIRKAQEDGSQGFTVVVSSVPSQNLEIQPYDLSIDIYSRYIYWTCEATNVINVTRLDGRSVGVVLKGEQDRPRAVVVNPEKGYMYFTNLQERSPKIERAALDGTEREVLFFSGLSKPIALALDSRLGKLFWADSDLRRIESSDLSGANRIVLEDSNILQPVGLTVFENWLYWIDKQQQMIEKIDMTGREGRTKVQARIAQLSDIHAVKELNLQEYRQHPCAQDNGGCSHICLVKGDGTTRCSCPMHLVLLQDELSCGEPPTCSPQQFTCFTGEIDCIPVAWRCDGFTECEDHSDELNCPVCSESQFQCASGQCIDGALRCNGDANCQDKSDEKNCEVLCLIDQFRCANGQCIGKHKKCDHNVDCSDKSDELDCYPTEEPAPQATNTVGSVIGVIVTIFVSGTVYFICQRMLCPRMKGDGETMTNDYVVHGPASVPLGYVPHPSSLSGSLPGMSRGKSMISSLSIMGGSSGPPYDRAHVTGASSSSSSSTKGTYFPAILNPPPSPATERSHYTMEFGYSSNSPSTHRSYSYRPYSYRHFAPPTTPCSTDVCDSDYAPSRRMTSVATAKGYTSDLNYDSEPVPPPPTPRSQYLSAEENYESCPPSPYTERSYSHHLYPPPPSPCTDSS
UniProt P25791: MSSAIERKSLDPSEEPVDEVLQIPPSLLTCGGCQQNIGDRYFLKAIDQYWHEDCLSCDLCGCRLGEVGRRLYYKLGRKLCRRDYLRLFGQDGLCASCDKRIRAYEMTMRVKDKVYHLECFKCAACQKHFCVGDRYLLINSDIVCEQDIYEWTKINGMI
UniProt O95214: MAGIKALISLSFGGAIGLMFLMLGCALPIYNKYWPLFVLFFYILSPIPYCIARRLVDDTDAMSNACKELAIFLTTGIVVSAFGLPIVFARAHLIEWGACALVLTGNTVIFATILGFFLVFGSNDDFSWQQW
UniProt A6NK58: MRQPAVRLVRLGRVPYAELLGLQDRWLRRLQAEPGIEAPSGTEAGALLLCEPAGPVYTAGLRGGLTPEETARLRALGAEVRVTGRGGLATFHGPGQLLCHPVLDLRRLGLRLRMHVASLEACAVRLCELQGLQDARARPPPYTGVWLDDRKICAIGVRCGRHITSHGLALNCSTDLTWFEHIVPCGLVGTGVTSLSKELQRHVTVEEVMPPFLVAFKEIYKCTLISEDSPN
UniProt Q9Y2U8: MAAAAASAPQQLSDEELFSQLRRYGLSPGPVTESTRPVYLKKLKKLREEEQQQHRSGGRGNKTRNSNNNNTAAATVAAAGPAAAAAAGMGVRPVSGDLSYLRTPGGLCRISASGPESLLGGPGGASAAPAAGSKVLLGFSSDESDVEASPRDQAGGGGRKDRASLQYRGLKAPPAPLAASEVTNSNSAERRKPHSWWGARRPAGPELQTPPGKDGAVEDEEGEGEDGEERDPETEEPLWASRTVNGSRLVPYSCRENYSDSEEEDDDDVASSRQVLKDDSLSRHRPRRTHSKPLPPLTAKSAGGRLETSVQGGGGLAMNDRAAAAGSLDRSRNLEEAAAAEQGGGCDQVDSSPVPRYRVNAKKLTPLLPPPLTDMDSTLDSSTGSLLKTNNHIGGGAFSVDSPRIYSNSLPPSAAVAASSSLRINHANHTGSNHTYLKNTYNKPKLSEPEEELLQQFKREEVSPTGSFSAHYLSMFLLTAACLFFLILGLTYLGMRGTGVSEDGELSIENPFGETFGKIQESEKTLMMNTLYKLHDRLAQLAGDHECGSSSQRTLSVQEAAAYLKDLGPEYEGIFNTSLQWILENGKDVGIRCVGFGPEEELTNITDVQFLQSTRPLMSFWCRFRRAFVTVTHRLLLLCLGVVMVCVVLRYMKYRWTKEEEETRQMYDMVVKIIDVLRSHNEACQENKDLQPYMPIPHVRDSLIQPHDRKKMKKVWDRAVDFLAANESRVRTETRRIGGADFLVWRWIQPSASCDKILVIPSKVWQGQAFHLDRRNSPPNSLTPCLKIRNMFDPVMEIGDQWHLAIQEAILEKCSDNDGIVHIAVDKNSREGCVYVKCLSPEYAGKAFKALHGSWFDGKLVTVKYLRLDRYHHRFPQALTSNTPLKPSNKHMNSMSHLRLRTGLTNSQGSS
UniProt Q92604: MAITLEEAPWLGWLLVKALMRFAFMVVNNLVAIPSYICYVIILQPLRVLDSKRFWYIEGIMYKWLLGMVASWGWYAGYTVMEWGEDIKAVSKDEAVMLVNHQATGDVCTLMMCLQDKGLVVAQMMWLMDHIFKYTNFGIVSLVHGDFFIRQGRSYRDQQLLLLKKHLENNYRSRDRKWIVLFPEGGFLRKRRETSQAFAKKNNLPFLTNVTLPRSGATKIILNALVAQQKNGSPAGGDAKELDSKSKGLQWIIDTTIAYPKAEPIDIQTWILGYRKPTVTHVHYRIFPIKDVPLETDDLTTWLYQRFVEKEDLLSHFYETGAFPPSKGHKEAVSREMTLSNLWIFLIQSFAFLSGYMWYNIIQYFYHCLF
UniProt O00214: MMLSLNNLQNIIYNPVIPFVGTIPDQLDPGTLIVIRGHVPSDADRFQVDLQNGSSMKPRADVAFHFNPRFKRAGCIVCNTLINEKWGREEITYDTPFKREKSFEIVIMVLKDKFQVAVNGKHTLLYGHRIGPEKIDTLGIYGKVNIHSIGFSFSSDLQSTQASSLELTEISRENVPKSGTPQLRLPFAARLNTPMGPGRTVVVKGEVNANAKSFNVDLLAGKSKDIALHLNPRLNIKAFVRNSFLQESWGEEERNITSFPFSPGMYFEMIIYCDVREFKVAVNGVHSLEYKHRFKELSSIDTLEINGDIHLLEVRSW
UniProt Q6P1Q0: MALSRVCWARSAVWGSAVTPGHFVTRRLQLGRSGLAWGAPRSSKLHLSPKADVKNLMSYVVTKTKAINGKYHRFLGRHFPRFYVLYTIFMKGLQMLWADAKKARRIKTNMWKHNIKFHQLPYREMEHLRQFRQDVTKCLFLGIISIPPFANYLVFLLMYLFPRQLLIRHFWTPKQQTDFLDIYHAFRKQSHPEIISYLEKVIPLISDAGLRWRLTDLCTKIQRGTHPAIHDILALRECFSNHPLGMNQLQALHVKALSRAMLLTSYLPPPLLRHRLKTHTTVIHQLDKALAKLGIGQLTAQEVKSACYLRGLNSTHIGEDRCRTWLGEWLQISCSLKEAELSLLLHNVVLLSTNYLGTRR
UniProt Q9BQK8: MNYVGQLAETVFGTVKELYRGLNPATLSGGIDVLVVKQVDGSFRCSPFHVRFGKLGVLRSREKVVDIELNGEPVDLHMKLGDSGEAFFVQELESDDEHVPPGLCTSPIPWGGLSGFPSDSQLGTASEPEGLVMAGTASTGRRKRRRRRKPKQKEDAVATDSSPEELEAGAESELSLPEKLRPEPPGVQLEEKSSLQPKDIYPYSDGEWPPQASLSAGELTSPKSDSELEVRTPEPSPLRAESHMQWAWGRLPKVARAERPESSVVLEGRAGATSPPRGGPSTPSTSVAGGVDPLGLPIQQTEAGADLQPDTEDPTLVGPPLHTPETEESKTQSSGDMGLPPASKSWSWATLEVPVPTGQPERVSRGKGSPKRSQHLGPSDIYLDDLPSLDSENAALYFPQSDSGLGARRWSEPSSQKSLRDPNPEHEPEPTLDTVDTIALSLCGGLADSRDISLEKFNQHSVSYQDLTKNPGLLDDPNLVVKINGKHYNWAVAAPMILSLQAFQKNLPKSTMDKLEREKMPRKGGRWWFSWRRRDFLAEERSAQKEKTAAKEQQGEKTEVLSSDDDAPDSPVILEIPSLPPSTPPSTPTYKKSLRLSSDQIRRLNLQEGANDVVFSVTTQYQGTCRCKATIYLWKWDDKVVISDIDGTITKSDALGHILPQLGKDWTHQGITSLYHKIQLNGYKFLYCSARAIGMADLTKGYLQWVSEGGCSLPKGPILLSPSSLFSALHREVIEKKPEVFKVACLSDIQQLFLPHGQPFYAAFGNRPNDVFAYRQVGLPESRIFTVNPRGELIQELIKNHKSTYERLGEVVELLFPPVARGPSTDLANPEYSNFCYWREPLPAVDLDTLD
UniProt Q13094: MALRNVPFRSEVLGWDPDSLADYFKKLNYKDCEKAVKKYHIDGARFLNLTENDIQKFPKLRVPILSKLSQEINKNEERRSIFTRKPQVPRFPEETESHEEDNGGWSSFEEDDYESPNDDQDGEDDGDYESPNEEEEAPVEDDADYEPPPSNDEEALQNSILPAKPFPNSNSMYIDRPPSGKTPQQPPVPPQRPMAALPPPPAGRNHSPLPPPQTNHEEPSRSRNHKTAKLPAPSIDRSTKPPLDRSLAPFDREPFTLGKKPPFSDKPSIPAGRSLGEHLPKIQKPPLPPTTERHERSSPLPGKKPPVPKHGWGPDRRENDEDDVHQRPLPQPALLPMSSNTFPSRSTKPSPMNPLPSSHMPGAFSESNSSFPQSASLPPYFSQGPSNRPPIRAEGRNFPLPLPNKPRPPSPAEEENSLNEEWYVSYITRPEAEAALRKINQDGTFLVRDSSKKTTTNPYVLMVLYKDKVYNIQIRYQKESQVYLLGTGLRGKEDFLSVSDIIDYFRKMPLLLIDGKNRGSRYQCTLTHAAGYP

How the values were obtained:
Test in all cases: log2 fold change, soluble protein after heating vs DMSO (PISA); higher = thermal stabilisation; K562 cells, 10 uM, 30 min; active = over 0.2 and 3.5 SD of the protein, either way, in both replicates (recomputed)
saracatinib = compound: CN1CCN(CCOc2cc(OC3CCOCC3)c3c(Nc4c(Cl)ccc5c4OCO5)ncnc3c2)CC1 [saracatinib]
How it was run: (§1)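 Values are thermal stability changes relative to control samples and are taken from duplicates. They are stated as log2 fold changes. Before quantification by TMTpro 16plex LC-MS/MS with equalised channel sums, K562 cells at 2×10^6 cells/mL were treated with 10 μM compound for 30 min, heated in aliquots for 3 min across 48°C-58°C, pooled, extracted in PBS with 0.5% NP-40 at 4°C, and centrifuged at 21,000xg for 90 min to give the soluble supernatant.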

sotrastaurin = compound: CN1CCN(c2nc(C3=C(c4c[nH]c5ccccc45)C(=O)NC3=O)c3ccccc3n2)CC1 [sotrastaurin]
How it was run: as §1

alvocidib = compound: CN1CC[C@H](c2c(O)cc(O)c3c(=O)cc(-c4ccccc4Cl)oc23)[C@H](O)C1 [alvocidib]
How it was run: as §1

[1] = compound: CNc1nc(-c2ccc3c(N)n[nH]c3c2)cc(N2C[C@@H](C(=O)NC3CCCCC3)CC[C@H]2C)n1
How it was run: as §1

Tubastatin A = compound: CN1CCc2c(c3ccccc3n2Cc2ccc(C(=O)NO)cc2)C1 [Tubastatin A]
How it was run: as §1

[2] = compound: CNC(=O)C1=CC=CC=C1NC2=NC(=NC=C2Cl)NC3=C(C=C(C=C3)N4CCOCC4)OC
How it was run: as §1

defactinib = compound: CNC(=O)c1ccc(Nc2ncc(C(F)(F)F)c(NCc3nccnc3N(C)S(C)(=O)=O)n2)cc1 [defactinib]
How it was run: as §1

rucaparib = compound: CNCc1ccc(-c2[nH]c3cc(F)cc4c3c2CCNC4=O)cc1 [rucaparib]
How it was run: as §1

encorafenib = compound: COC(=O)N[C@@H](C)CNc1nccc(-c2cn(C(C)C)nc2-c2cc(Cl)cc(NS(C)(=O)=O)c2F)n1 [encorafenib]
How it was run: as §1

[3] = compound: COC(=O)[C@H](CCSC)NC(=O)C1=C(C=C(C=C1)NC[C@H](CS)N)C2=CC=CC=C2
How it was run: as §1

Measured: log2 fold change

LIN28A (UniProt Q9H9Z2)
inactive: saracatinib 0.039 | sotrastaurin 0.078 | alvocidib -0.284 | [1] -0.039

LDHA isoform 3 (UniProt P00338)
inactive: saracatinib 0.032 | sotrastaurin 0.042 | alvocidib -0.019 | Tubastatin A -0.012 | [2] -0.016 | defactinib -0.009 | rucaparib -0.025 | [1] -0.018 | encorafenib -0.02 | [3] 0.007

LMTK2 (UniProt Q8IWU2)
inactive: saracatinib 0.13 | sotrastaurin -0.037 | alvocidib -0.036 | Tubastatin A -0.001 | [2] -0.014 | defactinib -0.076 | [1] 0.116 | [3] 0.044

LRRC47 (UniProt Q8N1G4)
inactive: saracatinib 0.043 | sotrastaurin -0.014 | alvocidib -0.063 | Tubastatin A -0.001 | [2] 0.011 | defactinib -0.04 | rucaparib -0.072 | [1] 0.029 | encorafenib 0.014 | [3] -0.037

LONP1 (UniProt P36776)
inactive: saracatinib 0.03 | sotrastaurin 0.034 | alvocidib -0.011 | Tubastatin A -0.015 | [2] 0.041 | defactinib -0.024 | rucaparib -0.036 | [1] -0.055 | encorafenib -0.01 | [3] 0.012

LEG1 (UniProt Q6P5S2)
inactive: saracatinib -0.223 | sotrastaurin -0.107 | alvocidib 0.103 | defactinib -0.004 | [1] -0.003 | [3] -0.071

LGALS1 (UniProt P09382)
inactive: saracatinib 0.011 | sotrastaurin -0.031 | alvocidib 0.003 | Tubastatin A 0.006 | [2] 0.028 | defactinib 0.005 | rucaparib -0.026 | [1] -0.004 | encorafenib 0.002 | [3] -0.035

LIMA1 isoform 4 (UniProt Q9UHB6)
inactive: saracatinib 0.046 | sotrastaurin -0.109 | Tubastatin A 0.014 | [2] -0.033 | defactinib -0.015 | rucaparib 0.074 | [1] -0.089 | encorafenib 0.017 | [3] 0.01

LLGL1 (UniProt Q15334)
inactive: saracatinib 0.016 | sotrastaurin 0.012 | alvocidib 0.044 | Tubastatin A 0.023 | [2] -0.004 | [1] 0.063

2 consecutive entries already listed:
LMTK2 (UniProt Q8IWU2)
inactive: saracatinib 0.13 | sotrastaurin -0.037 | alvocidib -0.036 | Tubastatin A -0.001 | [2] -0.014 | defactinib -0.076 | [1] 0.116 | [3] 0.044

LRRC47 (UniProt Q8N1G4)
inactive: saracatinib 0.043 | sotrastaurin -0.014 | alvocidib -0.063 | Tubastatin A -0.001 | [2] 0.011 | defactinib -0.04 | rucaparib -0.072 | [1] 0.029 | encorafenib 0.014 | [3] -0.037

Next records follow.

LEO1 (UniProt Q8WVC0)
inactive: saracatinib -0.047 | sotrastaurin -0.085 | Tubastatin A 0.061 | [2] -0.039 | defactinib -0.211 | rucaparib -0.151 | [1] -0.055 | encorafenib -0.033 | [3] -0.082

LIG3 (UniProt P49916)
inactive: saracatinib -0.438 | sotrastaurin -0.091 | alvocidib -0.287 | [2] -0.075 | [1] 0

LANCL2 (UniProt Q9NS86)
inactive: saracatinib 0.052 | sotrastaurin 0.032 | alvocidib -0.018 | Tubastatin A -0.001 | [2] -0.038 | defactinib -0.015 | rucaparib -0.019 | [1] -0.015 | encorafenib -0.004 | [3] 0

LRP6 (UniProt O75581)
inactive: saracatinib -0.067 | sotrastaurin -0.033 | alvocidib 0.113 | Tubastatin A 0.129 | [2] -0.109 | rucaparib -0.066 | [1] 0.074 | encorafenib -0.138

LMO2 isoform 3 (UniProt P25791)
inactive: saracatinib 0.066 | sotrastaurin 0.033 | alvocidib -0.014 | Tubastatin A -0.007 | [2] 0 | defactinib 0.005 | rucaparib -0.014 | [1] -0.05 | encorafenib 0.026 | [3] 0.024

LAMTOR4 (UniProt Q0VGL1)
inactive: saracatinib -0.084 | sotrastaurin -0.082 | alvocidib 0.14 | Tubastatin A 0.032 | [2] -0.076 | defactinib 0.007 | rucaparib -0.041 | [1] -0.051 | encorafenib -0.034 | [3] 0.022

LENG1 (UniProt Q96BZ8)
inactive: saracatinib 0 | sotrastaurin 0.019 | alvocidib 0.079 | Tubastatin A 0.004 | [2] -0.062 | defactinib 0.068 | rucaparib 0.007 | [1] -0.025 | encorafenib -0.065 | [3] 0.035

LMAN1 (UniProt P49257)
inactive: saracatinib -0.033 | sotrastaurin -0.012 | alvocidib -0.002 | Tubastatin A -0.025 | [2] -0.01 | defactinib 0.002 | rucaparib 0.011 | [1] -0.152 | encorafenib -0.007 | [3] 0.018

LEPROTL1 isoform 2 (UniProt O95214)
inactive: saracatinib 0.004 | alvocidib -0.071 | Tubastatin A -0.261 | defactinib -0.068 | rucaparib -0.216 | [1] 0.028 | encorafenib 0.163 | [3] 0.104

LIPT2 (UniProt A6NK58)
inactive: saracatinib 0.039 | sotrastaurin -0.297 | Tubastatin A 0.016 | defactinib -0.08 | [1] -0.081 | [3] 0.172

LMO4 (UniProt P61968)
inactive: saracatinib -0.051 | alvocidib 0.033 | Tubastatin A -0.099 | rucaparib 0.015 | [1] -0.089 | encorafenib -0.187

LMBR1 isoform 3 (UniProt Q8WVP7)
inactive: saracatinib 0.085 | sotrastaurin -0.004 | Tubastatin A 0.079 | [2] -0.045 | defactinib -0.104 | [1] -0.009 | [3] 0.132

LRPPRC (UniProt P42704)
inactive: saracatinib -0.281 | sotrastaurin -0.874 | Tubastatin A 0.316 | [2] -0.241 | defactinib -0.346 | rucaparib 0.395 | [1] -0.175 | encorafenib 0.116 | [3] -0.103

LEMD3 (UniProt Q9Y2U8)
inactive: saracatinib -0.014 | sotrastaurin 0.013 | Tubastatin A 0.062 | [2] 0.068 | defactinib -0.111 | rucaparib 0.027 | [1] 0.039 | encorafenib 0.026 | [3] -0.075

LPGAT1 (UniProt Q92604)
inactive: saracatinib 0.111 | sotrastaurin -0.001 | Tubastatin A 0.019 | [2] 0.073 | defactinib -0.184 | rucaparib 0.036 | [1] -0.187 | encorafenib 0.026 | [3] 0.015

LRBA (UniProt P50851)
inactive: saracatinib 0.039 | sotrastaurin -0.031 | Tubastatin A 0.014 | [2] -0.012 | defactinib -0.015 | rucaparib -0.01 | [1] -0.023 | encorafenib 0.018 | [3] -0.002

LRRC42 (UniProt Q9Y546)
inactive: saracatinib 0.153 | alvocidib 0.069 | Tubastatin A 0 | [2] 0.135 | defactinib 0.076 | [1] 0.062 | [3] 0.011

LGALS8 isoform 2 (UniProt O00214)
inactive: saracatinib -0.359 | sotrastaurin -0.323 | Tubastatin A 0.07 | [2] -0.244 | defactinib 0.104 | rucaparib 0.306 | [1] 0.141 | encorafenib 0.218 | [3] -0.051

LETMD1 isoform 7 (UniProt Q6P1Q0)
inactive: saracatinib 0.053 | sotrastaurin 0.018 | Tubastatin A 0.288 | [2] 0.072 | rucaparib -0.026 | [1] 0.021 | encorafenib 0.06

LARP1 (UniProt Q6PKG0)
inactive: saracatinib -0.023 | sotrastaurin -0.029 | Tubastatin A 0.059 | [2] 0.05 | defactinib 0.089 | rucaparib 0.11 | [1] 0.004 | encorafenib 0.039 | [3] 0.01

LPIN3 isoform 2 (UniProt Q9BQK8)
inactive: saracatinib -0.101 | sotrastaurin 0.171 | Tubastatin A 0.093 | [2] -0.087 | defactinib -0.022 | rucaparib 0.049 | [1] 0.049 | encorafenib 0.051 | [3] -0.012

LCP2 (UniProt Q13094)
inactive: saracatinib 0.123 | sotrastaurin -0.086 | Tubastatin A 0.063 | [2] 0.025 | defactinib -0.105 | rucaparib 0.071 | [1] 0.153 | encorafenib 0.043 | [3] 0.035

LMF2 (UniProt Q9BU23)
inactive: saracatinib 0.006 | sotrastaurin -0.043 | Tubastatin A 0.048 | [2] 0.007 | defactinib 0 | rucaparib 0.082 | [1] -0.02 | encorafenib 0.052 | [3] -0.04
